These are yes or no findings as the source states them, for the method shown. Binding seen in cells or lysates may run through a third protein. Some entries that bind do so weakly or less than the wild type.
Biological target: GST-tagged RhoGAP4 SH3 (human) (UniProt P98171)
Test: pull-down; GST-tagged RhoGAP4 domain incubated with HL-60 lysate, eluted with glutathione, blotted for Hem-1; only the target purified

Sequences of proteins named here, by UniProt entry; tags and fusion partners are left off. Residues count along the entry.
UniProt P98171, residues 746-805: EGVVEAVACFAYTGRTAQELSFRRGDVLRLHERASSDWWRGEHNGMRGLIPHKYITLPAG

binding: binds
B1: hematopoietic protein 1 (Hem-1) (protein, UniProt P55160 1-1127)
chain: MSLTSAYQHKLAEKLTILNDRGQGVLIRMYNIKKTCSDPKSKPPFLLEKSMEPSLKYINKKFPNIDVRNSTQHLGPVHREKAEIIRFLTNYYQSFVDVMEFRDHVYELLNTIDACQCHFDINLNFDFTRSYLDLIVTYTSVILLLSRIEDRRILIGMYNCAHEMLHGHGDPSFARLGQMVLEYDHPLKKLTEEFGPHTKAVSGALLSLHFLFVRRNQGAEQWRSAQLLSLISNPPAMINPANSDTMACEYLSVEVMERWIIIGFLLCHGCLNSNSQCQKLWKLCLQGSLYITLIREDVLQVHKVTEDLFSSLKGYGKRVADIKESKEHVIANSGQFHCQRRQFLRMAVKELETVLADEPGLLGPKALFAFMALSFIRDEVTWLVRHTENVTKTKTPEDYADSSIAELLFLLEGIRSLVRRHIKVIQQYHLQYLARFDALVLSDIIQNLSVCPEEESIIMSSFVSILSSLNLKQVDNGEKFEFSGLRLDWFRLQAYTSVAKAPLHLHENPDLAKVMNLIVFHSRMLDSVEKLLVETSDLSTFCFHLRIFEKMFAMTLEESAMLRYAIAFPLICAHFVHCTHEMCPEEYPHLKNHGLHHCNSFLEELAKQTSNCVLEICAEQRNLSEQLLPKHCATTISKAKNKKTRKQRQTPRKGEPERDKPGAESHRKNRSIVTNMDKLHLNLTELALTMNHVYSFSVFEHTIFPSEYLSSHLEARLNRAIVWLAGYNATTQEIVRPSELLAGVKAYIGFIQSLAQFLGADASRVIRNALLQQTQPLDSCGEQTITTLYTNWYLESLLRQASSGTIILSPAMQAFVSLPREGEQNFSAEEFSDISEMRALAELLGPYGMKFLSENLMWHVTSQIVELKKLVVENMDILVQIRSNFSKPDLMASLLPQLTGAENVLKRMTIIGVILSFRAMAQEGLREVFSSHCPFLMGPIECLKEFVTPDTDIKVTLSIFELASAAGVGCDIDPALVAAIANLKADTSSPEEEYKVACLLLIFLAVSLPLLATDPSSFYSIEKDGYNNNIHCLTKAIIQVSAALFTLYNKNIETHLKEFLVVASVSLLQLGQETDKLKTRNRESISLLMRLVVEESSFLTLDMLESCFPYVLLRNAYREVSRAFHLN
